PubChem BioAssay AID686938, Drosophila RNAi Screening Center | 2013
The deposit covers about 23,000 reagents; shown is an unselected part of those that have a named target and a result. In the full data, 75 (0.33%) were called active. 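Raw plate signals without normalisation; calls rest on plate z-scores that were not deposited; ratio present for only 364 wells.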 Reagents against one gene are numbered here. Reagent sequences are not shown. Not given: the dose of the treatment.

- Purpose: 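Looking for CRAC channel components and the factors controlling them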 (primary screen)
- System: Drosophila S2R+ cells
- Knock-down reagent: long dsRNA against Drosophila genes, about 0.25 µg dsRNA per well, roughly 10,000 cells
- Timing: 5 days of knock-down before the calcium assay
- Treatment: thapsigargin (SERCA pump blocker) to empty calcium stores; entry signal taken 4 min after adding it
- Detection: 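Per-well fluo-4 fluorescence in two replicates, unnormalised, measured in resting cells and 4 min after store depletion by the SERCA blocker thapsigargin; ratio of the two present in few wells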
- Direction: calcium entry signal: higher = stronger calcium signal after store depletion; entry to resting ratio: higher = more calcium entry relative to resting level; resting calcium signal: higher = higher resting calcium signal
- Call rule: 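Called when the plate z-score of the entry-to-rest ratio, mean of duplicates, falls below −3; wells with low overall dye signal (Fmax z below −2) or more than five off-targets excluded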
- Calls: active = strongly reduced calcium entry; inactive = no strong reduction

gene knocked down	reagent	calcium entry signal, replicate 1 (fluorescence units)	calcium entry signal, replicate 2 (fluorescence units)	entry to resting ratio	resting calcium signal, replicate 1 (fluorescence units)	resting calcium signal, replicate 2 (fluorescence units)	call
CG14903	1	2.13e7	3.14e7		1.11e7	4.47e7	inactive
CG42514	1	2.52e7	3.72e7		1.22e7	2.32e7	inactive
Nup37	1	3.59e7	6.09e7		1.83e7	2.43e7	inactive
Or22c	1	3.42e7	3.84e7		1.61e7	1.74e7	inactive
CG12069	1	4.12e7	4.55e7		2.04e7	2.02e7	inactive
fh	1	1.94e7	3.62e7		1.08e7	1.63e7	inactive
Stip1	1	3.82e7			2.08e7		inactive
Saf6	1	3.38e7			2.09e7		inactive
lbk	1	3.18e7	3.09e7		1.49e7	1.53e7	inactive
nAChRalpha2	1	3.65e7	2.62e7		1.73e7	1.30e7	inactive
Art3	1	3.28e7	4.35e7		1.52e7	1.81e7	inactive
CG17666	1	2.31e7	3.30e7		1.26e7	1.52e7	inactive
CG17807	1	3.80e7			1.80e7		inactive
RhoGAP19D	1	2.72e7	2.86e7		1.54e7	1.35e7	inactive
RhoGAP19D	2	4.95e7	4.88e7		2.21e7	2.12e7	inactive
Desat1	1	3.16e7	3.57e7		1.94e7	2.14e7	inactive
Bbd	1	4.06e7	4.25e7		1.75e7	2.24e7	inactive
CG4297	1	2.42e7	2.60e7		1.18e7	1.17e7	inactive
alpha-Est4	1	4.20e7	3.25e7		1.90e7	1.54e7	inactive
Spase22-23	1	4.35e7	6.17e7		2.30e7	2.71e7	inactive
BaraC	1	3.10e7	4.55e7		1.49e7	4.34e7	inactive
SdhCL	1	3.55e7	3.68e7		1.75e7	1.85e7	inactive
CG4293	1	4.58e7	5.31e7		2.12e7	2.40e7	inactive
CG6683	1	4.03e7	3.33e7		2.76e7	1.39e7	inactive
Nak	1	4.68e7			2.18e7		inactive
CG11893	1	3.10e7	4.96e7		1.58e7	2.18e7	inactive
CG8321	1	3.46e7	3.64e7		1.41e7	1.63e7	inactive
CG4686	1	3.78e7	4.46e7		5.66e7	2.03e7	inactive
Gem3	1	1.76e7	2.13e7		1.06e7	1.11e7	inactive
Sce	1	3.22e7	3.85e7		1.64e7	2.00e7	inactive
CG13044	1	5.03e7	5.94e7		2.07e7	2.58e7	inactive
CG4716	1	2.36e7	2.92e7		1.17e7	1.33e7	inactive
eIF1	1	1.96e7	2.61e7		1.24e7	1.24e7	inactive
CG15435	1	2.52e7	1.98e7		1.15e7	1.01e7	inactive
Mal-A2	1	4.00e7	3.75e7		1.96e7	1.78e7	inactive
l(2)03659	1	4.09e7	4.39e7		1.90e7	1.88e7	inactive
l(2)03659	2	3.95e7	5.09e7		1.77e7	2.08e7	inactive
mtTFB2	1	1.76e7	2.44e7		9.53e6	1.20e7	inactive
TRAM	1	4.91e7	5.79e7	2	2.48e7	2.25e7	inactive
TRAM	2	5.29e7	5.73e7	2	2.64e7	2.27e7	inactive
unc-119	1	3.70e7	4.06e7		1.80e7	1.82e7	inactive
idc	1	4.09e7	3.32e7		1.80e7	1.45e7	inactive
CG18530	1	3.19e7	3.40e7		1.57e7	1.70e7	inactive
spn-A	1	3.11e7	5.50e7		1.53e7	2.46e7	inactive
TkR86C	1	3.33e7	3.20e7		1.66e7	1.59e7	inactive
Bin1	1	3.28e7	5.29e7		1.61e7	7.09e7	inactive
CG33127	1	3.01e7	3.13e7		1.60e7	1.36e7	inactive
dtr	1	2.13e7	3.78e7		1.08e7	1.58e7	inactive
Tsp42A	1	4.18e7	4.22e7		2.13e7	1.89e7	inactive
CG3598	1	4.45e7	5.35e7	2.2	2.02e7	2.10e7	inactive
CG8152	1	3.65e7	4.55e7		1.93e7	2.00e7	inactive
CG7631	1	5.13e7	3.43e7		2.16e7	1.61e7	inactive
Nepl9	1	3.64e7	2.16e7		1.73e7	1.11e7	inactive
FeCH	1	3.05e7	3.19e7		1.30e7	1.67e7	inactive
CG15269	1	4.55e7	2.23e7		1.94e7	1.08e7	inactive
NKAIN	1	2.83e7			1.45e7		inactive
NKAIN	2	4.15e7	3.52e7		2.08e7	1.61e7	inactive
CG42268	1	2.74e7	4.59e7		1.46e7	1.84e7	inactive
CG42268	2	2.60e7	4.53e7		1.38e7	1.77e7	inactive
CG42268	3	4.40e7	3.73e7		2.34e7	1.77e7	inactive

Targets listed so far whose gene name begins with D or d (2):
gene knocked down	reagent	calcium entry signal, replicate 1 (fluorescence units)	calcium entry signal, replicate 2 (fluorescence units)	entry to resting ratio	resting calcium signal, replicate 1 (fluorescence units)	resting calcium signal, replicate 2 (fluorescence units)	call
Desat1	1	3.16e7	3.57e7		1.94e7	2.14e7	inactive
dtr	1	2.13e7	3.78e7		1.08e7	1.58e7	inactive
